Experimental data as given in PubChem BioAssay AID504444 (National Center for Advancing Translational Sciences (NCATS), 2011).
In all, about 360,000 compounds went through this assay and about 7,500 (2.1%) were called active. The shares of active, inactive and inconclusive entries below differ from those in the screen. The call rests on the fitted dose curve; in most records, active means well fitted inhibition curve with a large enough effect; inconclusive means small, poorly fitted or top-dose-only effect, or effect the other way; inactive means flat fitted curve, though single readings scatter. A potency beside an inconclusive call is a rough fit, not a confirmed value.

test: Nrf2 qHTS screen for inhibitors; details: A549 ARE-Fluc reporter, luciferase luminescence, 18-24 h; series mostly up to 46 µM; further: nearly all actives have a fitted effect of over 60% in size
Summary of the method: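 Nrf2 activity is the BugLite luminescence, read 15 min after reagent at room temperature, following CellTiter-Fluor cytotoxicity readout (30 min, 37C). Compound titrations were applied for 18-24 h to 5000 A549 ARE_Fluc cells/well in 5% FBS OPTI-MEM.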
Potency means the concentration at half of the fitted maximal effect.

| Structure (SMILES) | Potency |
| --- | --- |
| COc1cc(OC)c(NC(=O)C(C)n2nc(-c3ccc(C)cc3)c3c(c2=O)CCCC3)cc1Cl (stereo not drawn) | inconclusive: 23.1 µM [falling, single point] |
| CCOCCCNC(=O)Cn1nc(CC)n2c(cc3c(OC)cccc32)c1=O | inactive |
| COC(=O)c1ccc(NC(=O)CSc2nc3cc4ccccc4cc3[nH]2)cc1 | inactive |
| COC(=O)CN(c1ccccc1F)S(=O)(=O)c1ccccc1 | inactive |
| Cc1cc(C)nc(SCc2cccc(C(=O)O)c2)n1 | inconclusive: 2.31 µM [falling, partial curve, poor fit] |
| O=C(CSc1ccccn1)Nc1nonc1[N+](=O)[O-] | inconclusive: 16.4 µM [falling, single point] |
| COc1ccccc1-c1cc(C(=O)N/N=C/c2ccc(C)s2)c2ccccc2n1 | inconclusive: 18.4 µM [activator, single point] |
| CCN(CC)S(=O)(=O)c1ccc(N2CC(C(=O)NCCC3=CCCCC3)CC2=O)cc1 (stereo not drawn) | inconclusive: 0.58 µM [falling, full curve, poor fit] |
| O=C(c1csc(Nc2cccc3ccccc23)n1)N1CCCC1 | inconclusive: 29.1 µM [activator, single point] |
| CCOC(=O)CC(NC(=O)CCc1c(C)nc2cc(-c3ccccc3)nn2c1C)c1ccc(C)cc1 (stereo not drawn) | inconclusive: 2.31 µM [falling, full curve] |
| C=CCn1c(=N)c(C#N)cc2c(=O)n3ccccc3nc21 | inconclusive: 3.26 µM [activator, partial curve, poor fit] |
| OCCN1CCN(Cc2cc(Cl)c3cccnc3c2O)CC1 | inconclusive: 14.6 µM [falling, partial curve, poor fit] |
| O=C(Cn1ncc2c3ccccc3n(Cc3cccc(Cl)c3)c2c1=O)N1CCCCCC1 | inconclusive: 29.1 µM [falling, single point] |
| FCCCOc1ccc(-c2nccc(-c3ccccn3)n2)cc1 | inconclusive: 29.1 µM [activator, single point] |
| CCOC(=O)/C(C#N)=C/c1c(N2CCN(c3ccccc3)CC2)nc2c(C)cccn2c1=O | inconclusive: 4.61 µM [falling, partial curve, poor fit] |
| COc1ccc(CCN2CN(S(=O)(=O)c3ccccc3)c3nc4ccccc4nc32)cc1 | inconclusive: 13 µM [falling, partial curve, poor fit] |
| Cc1nn(C(C)C(=O)NCCN2CCCC2)c(=O)c2c1sc1ccccc12 (stereo not drawn) | inconclusive: 29.1 µM [activator, single point] |
| COc1cc(OC)c(NC(=O)CSc2cc(=O)n(C)c3ccc(Cl)cc23)cc1Cl | inactive |
| CCc1ccc(NC(=O)CC2C(=O)N(c3ccc(Cl)cc3)C(=O)N2C2CCCC2)cc1 (stereo not drawn) | inconclusive: 16.4 µM [falling, single point] |
| C/C(CC(C)C)=N\Nc1ccc(S(N)(=O)=O)cc1[N+](=O)[O-] | inconclusive: 20.6 µM [falling, partial curve] |
| O=C(/C=C/c1ccco1)OCC(=O)N1CCCCC1 | inconclusive: 23.1 µM [activator, partial curve] |

| Structure (SMILES) | Potency |
| --- | --- |
| Cc1cccc2cc(CN(Cc3nnnn3C3CCCC3)C3CCCCC3)c(=O)[nH]c12 | inconclusive: 29.1 µM [falling, single point] |
| Brc1ccccc1-c1nnc(SCc2nc3ccccc3s2)o1 | inconclusive: 7.31 µM [activator, partial curve] |
| Cc1cccc(NS(=O)(=O)c2cccc(C(=O)NCC(c3ccco3)N3CCCCC3)c2)c1 (stereo not drawn) | inconclusive: 25.9 µM [falling, partial curve, poor fit] |
| COc1cc2c(s1)c1cnn(Cc3ccccc3F)c(=O)c1n2C | inactive |
| Cn1c(O)c(N=NC(=O)c2ccco2)c2ccccc21 | inconclusive: 11.6 µM [activator, partial curve] |
| CCN(CC)CCN(C(=O)CCS(=O)(=O)c1ccccc1)c1nc2cc(C)cc(C)c2s1 | inactive |
| CCc1ccc(NC(=O)c2sc3nc(C)cc(C)c3c2NC(=O)c2ccccc2OC)cc1 | inactive |
| CCOC(=O)C1(Cc2ccccc2C)CCCN(C(=O)c2ccc(COC)o2)C1 (stereo not drawn) | inconclusive: 8.2 µM [activator, partial curve] |
| COc1ccc(CN2CCN(S(=O)(=O)c3ccc(NC(C)=O)cc3)CC2)c(OC)c1OC | inconclusive: 16.4 µM [falling, partial curve, poor fit] |
| CCc1ccc(-c2nc(CSCC(=O)NCc3ccc(C)cc3)c(C)o2)cc1 | inconclusive: 20.6 µM [falling, partial curve, poor fit] |
| CCCCN(CCCC)c1cn[nH]c(=O)c1Cl | inconclusive: 10.3 µM [falling, partial curve, poor fit] |
| CCc1ccc(NC(=O)C2CCN(S(=O)(=O)c3ccc4c(c3)NC(=O)C(C)S4)CC2)cc1 (stereo not drawn) | inconclusive: 29.1 µM [falling, single point] |
| COCCN(C(=O)COC(=O)c1ccc(C=O)cc1)c1c(N)n(Cc2ccccc2)c(=O)[nH]c1=O | inconclusive: 4.61 µM [falling, single point] |
| CN(CC(=O)Nc1ccc(F)cc1)CC(=O)Nc1ccc(Cl)c(S(=O)(=O)N2CCOCC2)c1 | inconclusive: 20.6 µM [falling, single point] |
| NS(=O)(=O)c1ccc(Nc2nc(-c3ccc(O)cc3)cs2)cc1 | inconclusive: 7.31 µM [falling, partial curve, poor fit] |
| O=S1(=O)C=C(N2CCOCC2)c2ccccc21 | inactive |
| COc1cc(C(=O)NC2(C(F)(F)F)NC(=O)N(CCCc3ccccc3)C2=O)cc(OC)c1OC (stereo not drawn) | inconclusive: 16.4 µM [falling, single point] |
| CCOC(=O)c1ccc(NS(=O)(=O)c2ccc3c(c2)NC(=O)CCS3)cc1 | inconclusive: 20.6 µM [falling, single point] |
| COc1ccc(-c2nc3ccccc3s2)cc1NC(C)=O | inconclusive: 9.2 µM [activator, partial curve] |
| CCOC(=O)c1c(C)[nH]c(C)c1S(=O)(=O)NCC(=O)N1CCN(c2ccccc2F)CC1 | inconclusive: 29.1 µM [activator, single point] |
| Cc1ccc(NS(=O)(=O)c2cccs2)cc1S(=O)(=O)N1CCCCCC1 | active: 7.31 µM |

Of the compounds above, 2 have a nitro group on carbon:

| Structure (SMILES) | Potency |
| --- | --- |
| O=C(CSc1ccccn1)Nc1nonc1[N+](=O)[O-] | inconclusive: 16.4 µM [falling, single point] |
| C/C(CC(C)C)=N\Nc1ccc(S(N)(=O)=O)cc1[N+](=O)[O-] | inconclusive: 20.6 µM [falling, partial curve] |

A second format for two compounds above:
Structure (SMILES) | Potency
CCc1ccc(NC(=O)C2CCN(S(=O)(=O)c3ccc4c(c3)NC(=O)C(C)S4)CC2)cc1 (stereo not drawn) | inconclusive: 29.1 µM [falling, single point]
COCCN(C(=O)COC(=O)c1ccc(C=O)cc1)c1c(N)n(Cc2ccccc2)c(=O)[nH]c1=O | inconclusive: 4.61 µM [falling, single point]

Carrying on:

| Structure (SMILES) | Potency |
| --- | --- |
| COc1ccc(/C=N/OC(=O)Nc2ccccc2)cc1[N+](=O)[O-] | inconclusive: 8.2 µM [activator, partial curve] |
| CCC(C)c1ccc(S(=O)(=O)N2CCN(C(=O)c3ccc(Cl)c(S(=O)(=O)N4CCOCC4)c3)CC2)cc1 (stereo not drawn) | active: 10.3 µM |
| Cn1ncc(C#N)c1/N=C/N(Cc1ccccc1)Cc1ccccc1 | inconclusive: 32.6 µM [falling, single point] |
| O=C(CC1SCCNC1=O)Nc1ccc(Cl)c(Cl)c1 (stereo not drawn) | inconclusive: 16.4 µM [activator, partial curve, poor fit] |
| Cc1ccc(C(=O)NN2C(=O)/C(=C/c3cccn3C)SC2=S)cc1 | inconclusive: 29.1 µM [falling, single point] |
| COc1cccc(-c2ccc(C#N)c(OC(=O)c3c(Cl)cccc3Cl)n2)c1 | inconclusive: 20.6 µM [falling, single point] |
| Cc1ccc(-n2[nH]c(C)c(C=Nc3ccc(C)cn3)c2=O)cc1 | inactive |
| CC(=O)Nc1sc2c(c1C(N)=O)CCN(Cc1ccccc1)C2 | inconclusive: 20.6 µM [activator, partial curve] |
| O=C(N/N=C/c1c[nH]c2ccccc12)c1ccccc1Cl | inconclusive: 1.64 µM [activator, full curve, poor fit] |
| CC(=O)c1cccc(Nc2nc(-c3ccccc3Cl)nc3ccccc23)c1 | inconclusive: 23.1 µM [falling, single point] |
| CCOC(=O)C1=C(c2ccccc2)NC(SCC(N)=O)=C(C#N)C1c1cccnc1 (stereo not drawn) | inconclusive: 25.9 µM [falling, single point] |
| COc1cc(-c2nnc(COc3ccc4ccccc4c3)o2)cc(OC)c1OC | inconclusive: 32.6 µM [falling, single point] |
| Cc1cccc(OCCn2c(-c3ccc(Cl)cc3)nc3ccccc3c2=O)c1C | inactive |
| O=C(Nc1ccn(Cc2ccccc2F)n1)c1ccc(COc2cccc(Br)c2)cc1 | inconclusive: 0.651 µM [activator, full curve] |
| O=c1c2cc(Cl)ccc2[nH]c(=S)n1Cc1ccccn1 | inconclusive: 1.84 µM [activator, full curve] |
| O=C(/C=C/c1cc([N+](=O)[O-])ccc1OC(F)F)NCc1ccc(Cl)cc1 | inconclusive: 9.2 µM [falling, partial curve] |
| CCC(=O)N(Cc1ccco1)c1nc(C(=O)Nc2ccc(Cl)cc2)c(C)s1 | inconclusive: 20.6 µM [falling, single point] |
| Fc1ccc(-c2csc(NC(=S)Nc3ccccc3)n2)cc1 | inconclusive: 16.4 µM [falling, partial curve, poor fit] |
| O=C1CN(C(=O)CSc2nnc3ccccn23)c2ccccc2N1 | inconclusive: 23.1 µM [falling, partial curve] |
| C=Cn1cc[n+](CC(=O)c2ccc(OC)c(OC)c2)c1 | inconclusive: 23.1 µM [falling, single point] |
| C=CCOC(=O)C1=C(C)N=C2SCCC(=O)N2C1/C=C/c1ccccc1OC (stereo not drawn) | inconclusive: 25.9 µM [falling, single point] |
